Results are given in words; binding and its absence hold for the method and conditions named. Some entries that bind do so weakly or less than the wild type.
Key:
[1] = molecular target: sVLDLr1-8 (VLDL receptor ligand binding repeats 1-8) (UniProt P98155); test: competition ELISA, RAP on immobilized VLDLr ligand binding repeats 1-8
[2] = molecular target: sVLDLr1-8 (VLDL receptor ligand binding repeats 1-8) (UniProt P98155); test: competition ELISA, 1 nM RAP on immobilized sVLDLr1-8, competitor concentration varied

binding [1]: binds
binding [2]: binds
Binder: KTKRKRKKQRVKIAYEEIFVKNM [TFPI C-terminal peptide (carboxyl terminal 23 amino acids of TFPI)]
